Results published in PubChem BioAssay AID651610 (Broad Institute, 2012).
This is a selection; strong and weak results do not stand in their true shares. Activity calls are given as the source filed them.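 How the source made its calls: active means mean replicate inhibition score of at least 50 and every replicate individually at or above 50; inconclusive means only one of the two criteria met; inactive means mean below 50 and not all replicates reaching 50.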

Assay: inhibitors of HIV-1 Env-driven cell-cell fusion, primary screen, HeLa-JRFL effector, CEM21 target cells, luciferase (AID 651610);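 further: 0% = plate neutral controls and 100% = maraviroc near 300 nM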
Details: at 12.3 µM, stronger effect = higher value

inhibition, active:
Cc1nc2ccccc2c(-c2ccccc2)c1CC(=O)O 61.7%
COc1ccccc1C(=O)NNC(=S)NC(=O)c1ccco1 60.8%
CN(C)C(=O)c1cccc(COc2ccc(N3C(N)=NC(N)=NC3(C)C)cc2Cl)c1 62%
